Reference: patent publication US20130245102
For some assays here: For at least one entry, the source does not settle the construct or the ends of the probe. For some assays here: A negative result means that nothing was seen under these conditions. For some assays here: The comparison behind a weaker result is the experiment's own reference, which may not be listed here.

Chains of the proteins cited; added tags and fusions are not shown. Lines headed by an entry give the natural chain unless they say otherwise; changes in a name come on top.
UniProt Q9UPY3: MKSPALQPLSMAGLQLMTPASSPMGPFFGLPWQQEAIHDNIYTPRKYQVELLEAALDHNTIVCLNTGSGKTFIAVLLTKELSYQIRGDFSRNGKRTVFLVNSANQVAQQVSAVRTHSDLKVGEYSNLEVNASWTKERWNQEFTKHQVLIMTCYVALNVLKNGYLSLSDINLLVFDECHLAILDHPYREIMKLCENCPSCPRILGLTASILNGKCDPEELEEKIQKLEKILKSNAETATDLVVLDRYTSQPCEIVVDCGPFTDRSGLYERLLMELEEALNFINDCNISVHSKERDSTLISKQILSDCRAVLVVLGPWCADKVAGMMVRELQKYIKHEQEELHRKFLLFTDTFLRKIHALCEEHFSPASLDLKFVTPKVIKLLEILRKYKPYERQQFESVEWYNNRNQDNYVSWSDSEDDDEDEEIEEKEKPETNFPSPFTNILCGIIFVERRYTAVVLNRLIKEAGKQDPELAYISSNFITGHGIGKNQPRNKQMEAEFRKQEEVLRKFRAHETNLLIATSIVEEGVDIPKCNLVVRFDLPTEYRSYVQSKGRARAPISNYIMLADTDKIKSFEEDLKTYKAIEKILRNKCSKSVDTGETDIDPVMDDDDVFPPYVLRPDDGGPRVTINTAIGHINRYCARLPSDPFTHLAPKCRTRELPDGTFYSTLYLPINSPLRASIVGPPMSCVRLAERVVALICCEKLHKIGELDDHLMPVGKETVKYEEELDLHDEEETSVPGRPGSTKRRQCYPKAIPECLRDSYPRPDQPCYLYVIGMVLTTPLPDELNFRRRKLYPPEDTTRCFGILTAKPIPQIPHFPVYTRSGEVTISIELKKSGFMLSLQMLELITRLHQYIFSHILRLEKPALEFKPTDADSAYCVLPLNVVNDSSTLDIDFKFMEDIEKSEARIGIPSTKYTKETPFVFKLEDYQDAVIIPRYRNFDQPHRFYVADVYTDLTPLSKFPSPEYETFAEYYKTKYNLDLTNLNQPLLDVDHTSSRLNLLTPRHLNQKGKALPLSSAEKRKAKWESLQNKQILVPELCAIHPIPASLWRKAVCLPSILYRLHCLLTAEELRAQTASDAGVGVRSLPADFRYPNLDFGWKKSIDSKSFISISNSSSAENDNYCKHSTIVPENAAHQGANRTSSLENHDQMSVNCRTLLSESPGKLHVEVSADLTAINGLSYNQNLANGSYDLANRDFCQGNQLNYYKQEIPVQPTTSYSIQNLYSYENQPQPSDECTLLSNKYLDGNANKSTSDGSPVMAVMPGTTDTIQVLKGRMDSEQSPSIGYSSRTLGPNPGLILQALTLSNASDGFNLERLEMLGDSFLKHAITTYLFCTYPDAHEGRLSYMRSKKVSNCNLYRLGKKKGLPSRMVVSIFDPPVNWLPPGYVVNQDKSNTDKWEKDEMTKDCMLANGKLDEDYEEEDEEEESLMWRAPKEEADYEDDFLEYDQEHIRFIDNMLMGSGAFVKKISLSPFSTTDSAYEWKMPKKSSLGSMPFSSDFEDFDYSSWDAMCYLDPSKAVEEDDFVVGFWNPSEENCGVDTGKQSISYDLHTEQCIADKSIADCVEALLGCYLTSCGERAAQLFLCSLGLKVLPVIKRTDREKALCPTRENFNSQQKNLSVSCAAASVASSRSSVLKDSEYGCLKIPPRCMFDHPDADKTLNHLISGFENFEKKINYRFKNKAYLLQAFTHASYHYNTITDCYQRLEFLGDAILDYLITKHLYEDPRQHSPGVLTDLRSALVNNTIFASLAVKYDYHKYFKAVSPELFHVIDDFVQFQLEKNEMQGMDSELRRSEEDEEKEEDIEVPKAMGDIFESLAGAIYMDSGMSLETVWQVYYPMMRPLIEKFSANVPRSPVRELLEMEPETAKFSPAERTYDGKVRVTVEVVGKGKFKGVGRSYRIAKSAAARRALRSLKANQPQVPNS
UniProt P00573: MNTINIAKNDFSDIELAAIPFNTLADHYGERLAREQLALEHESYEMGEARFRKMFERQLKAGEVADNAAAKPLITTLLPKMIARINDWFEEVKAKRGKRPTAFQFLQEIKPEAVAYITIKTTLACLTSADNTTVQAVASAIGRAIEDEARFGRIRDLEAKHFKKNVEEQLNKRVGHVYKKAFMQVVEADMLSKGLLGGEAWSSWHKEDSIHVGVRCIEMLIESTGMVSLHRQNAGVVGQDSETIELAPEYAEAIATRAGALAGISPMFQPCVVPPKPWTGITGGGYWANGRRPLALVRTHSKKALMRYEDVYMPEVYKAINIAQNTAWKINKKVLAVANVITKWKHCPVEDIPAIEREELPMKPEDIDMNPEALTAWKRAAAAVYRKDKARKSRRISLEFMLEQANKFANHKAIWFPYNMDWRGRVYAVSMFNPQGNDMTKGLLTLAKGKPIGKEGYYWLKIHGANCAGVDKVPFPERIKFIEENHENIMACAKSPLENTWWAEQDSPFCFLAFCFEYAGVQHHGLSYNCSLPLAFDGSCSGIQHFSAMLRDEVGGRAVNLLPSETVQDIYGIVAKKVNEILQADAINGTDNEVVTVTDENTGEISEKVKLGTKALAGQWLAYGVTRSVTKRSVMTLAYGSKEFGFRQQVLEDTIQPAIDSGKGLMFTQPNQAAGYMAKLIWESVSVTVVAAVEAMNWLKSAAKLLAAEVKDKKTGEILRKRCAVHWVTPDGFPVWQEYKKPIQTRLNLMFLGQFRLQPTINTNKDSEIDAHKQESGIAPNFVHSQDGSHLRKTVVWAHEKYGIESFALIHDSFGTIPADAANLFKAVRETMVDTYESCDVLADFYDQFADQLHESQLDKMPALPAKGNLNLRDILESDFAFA

Columns and labels:
[1] = test system: RNA polymerase III (Homo sapiens); assay: activity assay; conditions: protein in an extract
[2] = target: Dicer (Homo sapiens) (UniProt Q9UPY3); assay: enzyme reaction in vitro; conditions: 21-24 nt products increased in Dicer-overexpressing WCE; protein in a lysate after overexpression
[3] = target: T7 RNA polymerase (Bacteriophage T7) (UniProt P00573); assay: activity assay; conditions: rolling circle transcription; purified recombinant protein; protein details: New England Biolabs; folded or branched DNA
[4] = no detectable single round transcript, folded or branched DNA
[5] = monomer and oligomeric transcripts in WCE, folded or branched DNA
[6] = monomer transcript in WCE, folded or branched DNA
[7] = single round transcript, folded or branched DNA

## AACCTCCAAACAAGCTCTCAAGGTCCA [coligo 7SK-KO]
[1]; [4]
  activity on this sequence: not active

## AACTGACCAGAGATGCAGCACTGCACCTCTTCCTGAGCTACAGTGCTTCATCTCAGAC [coligo 143]
[1]; [5]
  activity on this sequence: active

## AATCCACAAACCATTATGTGCTGCTACTTTGCAGCACAATATGGCCTGCACAA [coligo 15a]
[1]; [6]
  activity on this sequence: active

## ACCATCAGTTTTGCATAGATTTGCACAACTACAAAAATCAGAAGGAAAAAGTAGTGCAACTATGCAAAACTGACAG [lin19a]
[1]; linear, not transcribed or only low abortive transcripts, single-stranded DNA
  activity on this sequence: not active

## ACGAACACAGAAATCTACATTGTATGCCAGGTTCATGAAACCCAGCAGACAATGTAGCTGTTGCCTA [coligo 221]
[1]; [6]
  activity on this sequence: active

## ATGATCTAAAAACGGTGCTGTGTATGTCTGCTTTGATCAACCTCTAATAGCTCGTATGATAGTGCAGCCGCTGGTGATCACTGTGCGAATACGGGTTGTAGCAATGTTCGTCTGAGT [coligo RANDC1]
[1]; no transcripts in WCE, folded or branched DNA
  activity on this sequence: not active

## AUCAAACGCCAUUAUCACACUAAAUAGCUACUGCUAGGCAAUUCCUUAGCAGAGCUGUGGAGUGUGACAAUGGUGUUUGUGUC [122 single round transcript]
[2]
  functional effect: active

## CAGACAGCCCATCGACTGGTGTTGACAGTCAACATCAGTCTGATAAGCTACCCGACA [coligo 21]
[1]; [5]
  activity on this sequence: active

## GAAGGAAAAATCAGTTTTGCATAGATTTGCACAACTACATTCTTCTTGTAGTGCAACTATGCAAAACTGCAAACAAAAACTA [coligo 19aDcr3]
[1]; [7]
  activity on this sequence: active

## GAAGGAAATAGCAGGCCACCATCAGTTTTGCATAGATTTGCACAACTTCCAGATTCCACCTACTGTGGCTGGAAATGCAACTATGCAAAACTAACAGAGGACTGCAAACAAAAACTA [coligo 19am3]
[1]; [7]
  activity on this sequence: active

## GAAGGAAATAGCAGGCCACCATCAGTTTTGCATAGATTTGCACAACTTCCCTATGACCTCGACTACGACTGGAAATGCAACTATGCAAAACTAACAGAGGACTGCAAACAAAAACTA [coligo 19aRL]
[1]; stable in WCE but not transcribed, folded or branched DNA, variant of coligo 19aTAR (19am)
  activity on this sequence: not active

## GGAAAAATCAGTTTTGCATAGATTTGCACAACTACACACATGTTGTAGTGCAACTATGCAAGACCAAAAATCAGAA [coligo 19adcr1]
[1]; [7]
  activity on this sequence: active

## GGGTACCCTCTCTCAGTAGGCAGCTGCAAACATCCGACTGAAAGCCCATCTGTGGCTTCACAGCTTCCAGTCGAGGATGTTTACAGTCGCTCACTGCTCTGGATCCCTGCA [coligo 30a]
[1]; [4]
  activity on this sequence: not active

## TAGCAGGCCACCATCAGTTTTGCATAGATTTGCACAACTACATTCTTCTTGTAGTGCAACTATGCAAAACTAACAGAGGACTGCAA [coligo 19a]
[1]; poor substrate, no detectable single round transcript, folded or branched DNA
  activity on this sequence: less active

## TCGTCTTCGTCCCAGTAAGCTATGTCTCCAGAATGTAGCCA [coligo Luciferase-sense1]
[1]; [4]
  activity on this sequence: not active

## TGGACCTTGAGAGCTTGTTTGGAGGTT [coligo 7SK-KOas]
[1]; [4]
  activity on this sequence: not active

## TTGCCCTATTTAGTGTGATAATGGCGTTTGATAGTTTAGACACAAACACCATTGTCACACTCCACAGGGAA [coligo 122s]
[1]; 65-nt transcript, less than coligo 122, folded or branched DNA, variant of coligo 122
  activity on this sequence: active

## TTGCCTAGCAGTAGCTATTTAGTGTGATAATGGCGTTTGATAGTTTAGACACAAACACCATTGTCACACTCCACAGCTCTGCTAAGGAA [coligo 122]
[3]
  activity on this sequence: active

## TTGCCTAGCAGTAGCTATTTAGTGTGATAATGGCGTTTGATAGTTTAGACACAAACACCATTGTCACACTCCACAGCTCTGCTAAGGAA [linear 122]
[1]; 5' phosphate, no transcript from linear form, linear degraded in WCE, single-stranded DNA, variant of coligo 122
  activity on this sequence: not active

## TTTCTTTACATTTCTTTCTTTTCCGATCCTTTTCGGAT [coligo Pyr-rich]
[1]; [4]
  activity on this sequence: not active
